For 4 molecules, binding results are on record in PMC4156046.

By UniProt entry, the sequences of proteins in these tests, tags left out.
UniProt P63045: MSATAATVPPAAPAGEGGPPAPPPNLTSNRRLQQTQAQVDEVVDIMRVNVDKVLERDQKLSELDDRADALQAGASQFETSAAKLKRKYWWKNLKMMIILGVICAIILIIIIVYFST
UniProt Q9JHW5: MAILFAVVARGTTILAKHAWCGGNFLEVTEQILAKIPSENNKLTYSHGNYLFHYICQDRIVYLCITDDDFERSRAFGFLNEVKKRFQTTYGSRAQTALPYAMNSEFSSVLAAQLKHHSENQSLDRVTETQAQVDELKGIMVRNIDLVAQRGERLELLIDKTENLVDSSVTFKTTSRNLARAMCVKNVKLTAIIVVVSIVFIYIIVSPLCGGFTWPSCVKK

No constants are given. Whether binding was seen depends on the method and setting. Binding seen in cells or lysates may run through a third protein. Some results given as binding are weak or reduced against the parent protein; the word gives no strength.

The target of test [1] is T1, Na+/K+/2Cl- co-transporter NKCC2 (rat (endogenous in thick ascending limbs)) (UniProt P55016).
T1 sequence: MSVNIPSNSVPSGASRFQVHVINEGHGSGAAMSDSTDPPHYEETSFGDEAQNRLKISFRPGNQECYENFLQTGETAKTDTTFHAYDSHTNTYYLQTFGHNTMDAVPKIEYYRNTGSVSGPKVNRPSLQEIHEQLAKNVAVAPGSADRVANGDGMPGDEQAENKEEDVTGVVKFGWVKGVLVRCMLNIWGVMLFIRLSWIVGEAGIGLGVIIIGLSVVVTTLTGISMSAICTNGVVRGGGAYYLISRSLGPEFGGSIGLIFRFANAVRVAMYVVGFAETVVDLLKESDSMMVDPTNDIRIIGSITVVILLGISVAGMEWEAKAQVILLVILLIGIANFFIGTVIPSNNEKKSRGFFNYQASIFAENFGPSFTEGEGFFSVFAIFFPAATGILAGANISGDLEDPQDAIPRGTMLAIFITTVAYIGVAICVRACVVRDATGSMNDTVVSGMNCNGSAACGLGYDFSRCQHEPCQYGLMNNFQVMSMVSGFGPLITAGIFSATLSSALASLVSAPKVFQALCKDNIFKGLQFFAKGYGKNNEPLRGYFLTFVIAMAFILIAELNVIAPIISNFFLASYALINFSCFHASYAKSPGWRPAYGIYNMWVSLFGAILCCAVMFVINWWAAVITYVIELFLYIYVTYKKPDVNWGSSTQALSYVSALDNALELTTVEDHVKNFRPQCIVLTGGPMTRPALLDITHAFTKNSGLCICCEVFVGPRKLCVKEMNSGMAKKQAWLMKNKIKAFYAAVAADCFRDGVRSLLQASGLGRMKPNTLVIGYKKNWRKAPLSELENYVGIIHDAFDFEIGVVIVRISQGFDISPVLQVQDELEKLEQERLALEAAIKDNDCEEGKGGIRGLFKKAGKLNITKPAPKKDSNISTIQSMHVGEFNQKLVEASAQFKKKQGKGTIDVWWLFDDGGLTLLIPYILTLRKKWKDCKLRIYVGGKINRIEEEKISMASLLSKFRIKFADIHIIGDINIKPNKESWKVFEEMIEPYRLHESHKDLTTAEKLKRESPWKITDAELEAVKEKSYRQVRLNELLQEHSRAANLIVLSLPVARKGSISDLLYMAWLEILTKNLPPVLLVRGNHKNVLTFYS
Kind of test: co-IP; 200 ug rat TAL lysate; NKCC2 precipitated with 5 ug rabbit anti-NKCC2 IgG overnight at 4 C, protein G/protein A agarose; buffer 100 mM NaCl, 50 mM HEPES pH 7.5, 5 mM EDTA, 1% Triton X-100, 1% CHAPS; washes incl. 500 mM sodium; blots for VAMP2, VAMP7, VAMP8; also done on TALs treated with vehicle or the PKA agonist N6-benzoyl-cAMP (1 mM) + IBMX for 30 min.

For test [2], the target named is Vesicle-associated membrane protein 2 (VAMP2) (rat (endogenous in thick ascending limbs)) (UniProt P63045). Put plainly: co-IP; reciprocal: 100 ug rat TAL lysate; VAMP2 precipitated with 5 ug anti-VAMP2 antibody; NKCC2 found by Western blot. (A western blot detects proteins with antibodies after separation by electrophoresis.)

For “Vesicle-associated membrane protein 7 (VAMP7) (from UniProt Q9JHW5 1-220)”, in test [1], the binding result is given as “no binding”.
As to “Vesicle-associated membrane protein 2 (VAMP2) (from UniProt P63045 1-116)”, the binding entry in test [1] is on record as “binds”.

B1: Vesicle-associated membrane protein 8 (VAMP8) (protein, UniProt Q9WUF4 1-100)
chain: MEASGSAGNDRVRNLQSEVEGVKNIMTQNVERILARGENLDHLRNKTEDLEATSEHFKTTSQKVARKFWWKNVKMIVIICVIVLIILILIILFATGTIPT
In the case of B1, the binding result in test [1] was “no binding”.

B2: Na+/K+/2Cl- co-transporter NKCC2 (protein, UniProt P55016 1-1095)
chain: MSVNIPSNSVPSGASRFQVHVINEGHGSGAAMSDSTDPPHYEETSFGDEAQNRLKISFRPGNQECYENFLQTGETAKTDTTFHAYDSHTNTYYLQTFGHNTMDAVPKIEYYRNTGSVSGPKVNRPSLQEIHEQLAKNVAVAPGSADRVANGDGMPGDEQAENKEEDVTGVVKFGWVKGVLVRCMLNIWGVMLFIRLSWIVGEAGIGLGVIIIGLSVVVTTLTGISMSAICTNGVVRGGGAYYLISRSLGPEFGGSIGLIFRFANAVRVAMYVVGFAETVVDLLKESDSMMVDPTNDIRIIGSITVVILLGISVAGMEWEAKAQVILLVILLIGIANFFIGTVIPSNNEKKSRGFFNYQASIFAENFGPSFTEGEGFFSVFAIFFPAATGILAGANISGDLEDPQDAIPRGTMLAIFITTVAYIGVAICVRACVVRDATGSMNDTVVSGMNCNGSAACGLGYDFSRCQHEPCQYGLMNNFQVMSMVSGFGPLITAGIFSATLSSALASLVSAPKVFQALCKDNIFKGLQFFAKGYGKNNEPLRGYFLTFVIAMAFILIAELNVIAPIISNFFLASYALINFSCFHASYAKSPGWRPAYGIYNMWVSLFGAILCCAVMFVINWWAAVITYVIELFLYIYVTYKKPDVNWGSSTQALSYVSALDNALELTTVEDHVKNFRPQCIVLTGGPMTRPALLDITHAFTKNSGLCICCEVFVGPRKLCVKEMNSGMAKKQAWLMKNKIKAFYAAVAADCFRDGVRSLLQASGLGRMKPNTLVIGYKKNWRKAPLSELENYVGIIHDAFDFEIGVVIVRISQGFDISPVLQVQDELEKLEQERLALEAAIKDNDCEEGKGGIRGLFKKAGKLNITKPAPKKDSNISTIQSMHVGEFNQKLVEASAQFKKKQGKGTIDVWWLFDDGGLTLLIPYILTLRKKWKDCKLRIYVGGKINRIEEEKISMASLLSKFRIKFADIHIIGDINIKPNKESWKVFEEMIEPYRLHESHKDLTTAEKLKRESPWKITDAELEAVKEKSYRQVRLNELLQEHSRAANLIVLSLPVARKGSISDLLYMAWLEILTKNLPPVLLVRGNHKNVLTFYS
Take B2: the binding entry in test [2] is recorded as “binds”.
